Experimental data published in patent US20030215897A1.
These are yes or no findings as the source states them, for the method shown. Some entries that bind do so weakly or less than the wild type.

Target: T1, NorpA peptide co-crystallized with a PDZ1 domain (G-L-T-E-F-C-A) (Drosophila)
T1 sequence (peptide): GLTEFCA
Assay: crystal structure (coordinates in Table 2)

## PDZ1 domain polypeptide of InaD as in the crystal structure of Table 2 (from UniProt Q24008 17-106)
  binding: binds
